Results reported in patent publication US20140364335.
For part of these data: Results from cells or extracts need not show a direct contact. For part of these data: For at least one entry, the source does not settle the construct or the ends of the probe.

The chains behind the UniProt entries cited, without tags or fusion partners. Where a name states a change or a piece, a line headed by the entry shows the natural chain unless it says otherwise.
UniProt O54790: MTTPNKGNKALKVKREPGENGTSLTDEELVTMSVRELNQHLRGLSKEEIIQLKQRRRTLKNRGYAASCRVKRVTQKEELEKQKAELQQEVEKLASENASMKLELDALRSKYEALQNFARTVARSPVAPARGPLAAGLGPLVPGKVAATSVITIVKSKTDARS

What was measured:
[1] = test system: Nrf2 CT/MafG 1-123 heterodimer; assay: EMSA; conditions: room temperature 20 min; purified recombinant protein; protein details: 6xHis on each, E. coli; label: 5' biotin (EMSA)
[2] = molecular target: MafG (endogenous, Hepa1 chromatin) (Mus musculus) (UniProt O54790); assay: binding assay; conditions: ChIP-qPCR, protein in cells, label: 5' biotin (EMSA)

ACGCTCCTGCCGCTGAGCTGTGACTCAGCCAGAGAACTGAG (double strand) [Lipin1 promoter ARE]
binding result [1]: binds | binding result [2]: binds

CACACCCTGCCCAGAGGCACACTTGCTGAGTCAGCACCCCGG (double strand) [Lipin1 intron ARE]
binding result [1]: binds | binding result ([2]; strong): binds

TTGATAGTGAGGGGAACATGCTGACTCAGCAGCTCCGAATAA (double strand) [PGC-1beta intron ARE]
binding result [1]: binds | binding result ([2]; strong): binds
